Results deposited as PubChem BioAssay AID1508597 (Cure First, 2020)

Assay: 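Survival screen with siRNA in ovarian cancer cells derived from patients, with or without rucaparib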 (primary screen)
System: human ovarian carcinoma lines grown from tumours: OCI-P5x (papillary serous) and OCI-C5x (clear cell)
Reagent: siRNA pool against human genes, 1.25 pmol siRNA per well
Timing: 72 h or 96 h, depending on the cell culture
Treatment: rucaparib 20 µM (about IC30) or vehicle, present until read-out
Rucaparib or vehicle: Rucaparib
Cell line: OCI-C5x (clear cell)
Detection: 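ATP luminescence measured at 72 or 96 h according to the culture, then normalised and expressed as percent viability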
Direction: viability, normalised: higher = more viable cells remaining
Call rule: 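Active when normalised viability falls below 80 percent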
Meaning of the calls: active = viability under 80%; inactive = viability 80% or more
Shown is an unselected part of the about 2,100 reagents, in one setting of the screen. 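Calls flag viability under 80% in either arm, not effects specific to rucaparib; the reference for percent is not stated.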 Unmarked entries are inactive. Some reagents were tested in more than one well and are listed for each. Reagent sequences are not shown. Not given: the 100% reference.

{"target gene":"SOX2","PubChem SID":"SID405526444","technical replicate":"1","viability, normalised (%)":"53.3 (active)"}
{"target gene":"SOX2","PubChem SID":"SID405526444","technical replicate":"1","viability, normalised (%)":"51.6 (active)"}
{"target gene":"SOX2","PubChem SID":"SID405526444","technical replicate":"2","viability, normalised (%)":"49 (active)"}
{"target gene":"SOX2","PubChem SID":"SID405526444","technical replicate":"2","viability, normalised (%)":"58.5 (active)"}
{"target gene":"SOX2","PubChem SID":"SID405526444","technical replicate":"3","viability, normalised (%)":"41.8 (active)"}
{"target gene":"SOX2","PubChem SID":"SID405526444","technical replicate":"3","viability, normalised (%)":"46.4 (active)"}
{"target gene":"DDX51","PubChem SID":"SID405528196","technical replicate":"1","viability, normalised (%)":"43.6 (active)"}
{"target gene":"DDX51","PubChem SID":"SID405528196","technical replicate":"2","viability, normalised (%)":"40.3 (active)"}
{"target gene":"DDX51","PubChem SID":"SID405528196","technical replicate":"3","viability, normalised (%)":"49 (active)"}
{"target gene":"MAP3K9","PubChem SID":"SID405527897","technical replicate":"1","viability, normalised (%)":"61.3 (active)"}
{"target gene":"MAP3K9","PubChem SID":"SID405527897","technical replicate":"2","viability, normalised (%)":"44.2 (active)"}
{"target gene":"MAP3K9","PubChem SID":"SID405527897","technical replicate":"3","viability, normalised (%)":"58.1 (active)"}
{"target gene":"GATAD2A","PubChem SID":"SID405526808","technical replicate":"1","viability, normalised (%)":"42.2 (active)"}
{"target gene":"GATAD2A","PubChem SID":"SID405526808","technical replicate":"2","viability, normalised (%)":"44.6 (active)"}
{"target gene":"GATAD2A","PubChem SID":"SID405526808","technical replicate":"3","viability, normalised (%)":"41.4 (active)"}
{"target gene":"EID1","PubChem SID":"SID405526745","technical replicate":"1","viability, normalised (%)":"57.9 (active)"}
{"target gene":"EID1","PubChem SID":"SID405526745","technical replicate":"2","viability, normalised (%)":"53.3 (active)"}
{"target gene":"EID1","PubChem SID":"SID405526745","technical replicate":"3","viability, normalised (%)":"55.7 (active)"}
{"target gene":"SMYD1","PubChem SID":"SID405527346","technical replicate":"1","viability, normalised (%)":"56.2 (active)"}
{"target gene":"SMYD1","PubChem SID":"SID405527346","technical replicate":"2","viability, normalised (%)":"39.4 (active)"}
{"target gene":"SMYD1","PubChem SID":"SID405527346","technical replicate":"3","viability, normalised (%)":"62.3 (active)"}

Targets listed so far whose target name begins with D or d (3):
{"target gene":"DDX51","PubChem SID":"SID405528196","technical replicate":"1","viability, normalised (%)":"43.6 (active)"}
{"target gene":"DDX51","PubChem SID":"SID405528196","technical replicate":"2","viability, normalised (%)":"40.3 (active)"}
{"target gene":"DDX51","PubChem SID":"SID405528196","technical replicate":"3","viability, normalised (%)":"49 (active)"}
